No constants are given. Whether binding was seen depends on the method and setting. In cells and extracts the contact can be indirect. Some binding calls cover weakened binding; strength is not graded here.
What was measured:
[1] = target: T-complex protein 1 (TCP1) (human (endogenous in HL-60-G4, KG1α, Kasumi-1)) (UniProt P17987); assay: co-IP; cell lysate pre-cleared with Protein A/G magnetic beads; 1 μg TCP1 antibody (normal rabbit IgG as control) at 4 °C for 12 h, beads 6 h; Western blot; scramble and shTCP1 cells (Figure 3D); for CDC20 cells with and without FTY720 for 24 h (Figure 7F)
[2] = target: T-complex protein 1 (TCP1) (human (endogenous in HL-60-G4, KG1α, Kasumi-1)) (UniProt P17987); assay: condition: only cells treated with 30 μmol L^−1 FTY720 for 24 h; co-IP; as a1, cells treated before lysis with FTY720 for 24 h: 30 μmol·L^−1 (HL-60-G4) or 40 μmol·L^−1 (Kasumi-1)

The chains behind the UniProt entries cited, without tags or fusion partners.
UniProt P17987: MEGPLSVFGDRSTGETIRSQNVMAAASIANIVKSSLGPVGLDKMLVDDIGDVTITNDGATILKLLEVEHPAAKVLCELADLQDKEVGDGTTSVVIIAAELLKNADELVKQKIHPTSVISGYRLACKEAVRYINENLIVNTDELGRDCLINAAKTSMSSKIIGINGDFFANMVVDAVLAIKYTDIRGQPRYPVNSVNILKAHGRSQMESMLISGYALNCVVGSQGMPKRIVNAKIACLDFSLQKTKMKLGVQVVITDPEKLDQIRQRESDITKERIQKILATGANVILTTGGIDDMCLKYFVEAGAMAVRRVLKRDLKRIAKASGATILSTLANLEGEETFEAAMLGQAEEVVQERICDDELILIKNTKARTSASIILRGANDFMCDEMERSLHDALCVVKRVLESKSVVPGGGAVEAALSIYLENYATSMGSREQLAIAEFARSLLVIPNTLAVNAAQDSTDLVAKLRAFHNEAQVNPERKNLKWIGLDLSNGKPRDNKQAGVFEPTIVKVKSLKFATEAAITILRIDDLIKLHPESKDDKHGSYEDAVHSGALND
UniProt Q12834: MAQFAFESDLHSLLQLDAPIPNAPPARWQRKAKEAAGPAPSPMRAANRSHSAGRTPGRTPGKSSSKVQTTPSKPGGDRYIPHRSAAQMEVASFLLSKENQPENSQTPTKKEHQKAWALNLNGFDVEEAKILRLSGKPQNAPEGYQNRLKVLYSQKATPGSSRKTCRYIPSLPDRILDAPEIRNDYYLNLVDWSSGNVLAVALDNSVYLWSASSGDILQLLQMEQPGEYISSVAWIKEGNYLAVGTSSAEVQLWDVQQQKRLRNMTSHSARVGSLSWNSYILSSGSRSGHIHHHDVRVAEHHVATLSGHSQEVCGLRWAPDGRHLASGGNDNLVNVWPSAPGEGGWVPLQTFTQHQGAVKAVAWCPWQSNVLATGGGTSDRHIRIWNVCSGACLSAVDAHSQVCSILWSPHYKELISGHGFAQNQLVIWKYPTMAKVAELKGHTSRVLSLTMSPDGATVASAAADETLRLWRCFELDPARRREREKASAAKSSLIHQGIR
UniProt P53350: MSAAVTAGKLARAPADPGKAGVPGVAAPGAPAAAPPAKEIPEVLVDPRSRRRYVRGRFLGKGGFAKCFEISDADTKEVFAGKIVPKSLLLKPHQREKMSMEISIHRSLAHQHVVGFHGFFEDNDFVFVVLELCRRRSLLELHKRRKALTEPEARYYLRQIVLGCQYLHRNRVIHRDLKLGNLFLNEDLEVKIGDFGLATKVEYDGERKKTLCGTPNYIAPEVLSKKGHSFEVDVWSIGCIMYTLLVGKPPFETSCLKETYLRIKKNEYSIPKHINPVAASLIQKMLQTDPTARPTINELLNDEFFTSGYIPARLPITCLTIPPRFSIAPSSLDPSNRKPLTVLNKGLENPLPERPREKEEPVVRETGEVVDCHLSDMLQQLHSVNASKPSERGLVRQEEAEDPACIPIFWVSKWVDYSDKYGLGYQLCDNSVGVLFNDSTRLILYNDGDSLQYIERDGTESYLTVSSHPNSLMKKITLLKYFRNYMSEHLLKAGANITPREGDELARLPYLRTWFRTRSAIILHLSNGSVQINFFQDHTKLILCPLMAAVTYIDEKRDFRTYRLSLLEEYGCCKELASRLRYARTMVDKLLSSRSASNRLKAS

Q: How did the binding [1] turn out when CDC20 (from UniProt Q12834 1-499) was run?
A: binds

Q: With PLK1 (from UniProt P53350 1-603) as the substance, how does the binding [1] read?
A: binds

Q: What about the binding [2] of the same substance?
A: no binding
